Results from paper PMC12217761.
Results are given in words; binding and its absence hold for the method and conditions named. Binding seen in cells or lysates may run through a third protein. Some entries that bind do so weakly or less than the wild type.

Chains of the proteins cited; added tags and fusions are not shown.
UniProt Q8CFE3: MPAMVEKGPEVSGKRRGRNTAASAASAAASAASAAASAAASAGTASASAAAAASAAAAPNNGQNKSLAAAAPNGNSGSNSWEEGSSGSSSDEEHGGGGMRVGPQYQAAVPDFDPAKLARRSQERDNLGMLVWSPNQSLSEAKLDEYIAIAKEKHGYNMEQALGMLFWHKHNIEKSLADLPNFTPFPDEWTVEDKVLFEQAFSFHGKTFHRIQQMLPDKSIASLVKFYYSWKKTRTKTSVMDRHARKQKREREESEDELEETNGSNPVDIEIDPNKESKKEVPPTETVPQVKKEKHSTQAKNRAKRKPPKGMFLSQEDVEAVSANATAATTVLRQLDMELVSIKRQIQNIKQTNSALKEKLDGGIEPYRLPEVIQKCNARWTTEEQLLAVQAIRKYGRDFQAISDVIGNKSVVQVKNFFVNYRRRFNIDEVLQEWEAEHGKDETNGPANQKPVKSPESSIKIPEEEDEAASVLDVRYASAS
UniProt P10085: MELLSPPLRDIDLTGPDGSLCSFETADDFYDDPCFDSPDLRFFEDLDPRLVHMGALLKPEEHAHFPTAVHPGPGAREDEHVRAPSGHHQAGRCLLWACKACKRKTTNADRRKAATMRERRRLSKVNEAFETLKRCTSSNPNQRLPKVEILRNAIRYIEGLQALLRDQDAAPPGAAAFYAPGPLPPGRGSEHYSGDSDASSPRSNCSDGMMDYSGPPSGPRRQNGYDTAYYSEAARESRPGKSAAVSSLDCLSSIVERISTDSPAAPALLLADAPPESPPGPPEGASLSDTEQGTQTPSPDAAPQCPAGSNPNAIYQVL

Target: REST Corepressor 1 (RCOR1) (mouse (endogenous in C2C12)) (UniProt Q8CFE3)
Assay: co-IP; endogenous proteins; C2C12 cells in differentiation medium for 1 day; lysates in IP buffer (10 mM Tris pH 8, 0.4% NP40, 300 mM NaCl, 10% glycerol, 1 mM DTT) diluted with one volume of dilution buffer; immunoprecipitated with anti-LSD1 antibody, anti-RCOR1 antibody or rabbit normal IgG on Dynabeads Protein G at 4 °C; immunoblotting

## myoblast determination protein 1 (MyoD) (from UniProt P10085 1-318)
  binding: binds
